This assay concerns the target BnaBZR1 (BnaAnng32010D), two-hybrid fusion (Brassica napus (rapeseed)). Put plainly: two-hybrid; BnaARF8 (BnaC03g59640D) with BnaBZR1 (BnaAnng32010D); selective medium SD/-Trp-Leu-His-Ade; vectors not stated.

From article PMC6647246 come the findings set out here.

These are yes or no findings as the source states them, for the method shown. A result given as binding can be weak or reduced; the word gives no strength.

For the substance “BnaARF8 (BnaC03g59640D), two-hybrid fusion in pGADT7 (from UniProt A0A078FIW5)”, the binding entry is “binds”.
